{"source": "patent US20250244419A1", "about": "“INFUSION DEVICE FOR THE PREPARATION AND DELIVERY OF MRI PROBES” (The United States of America, as represented by the …, priority 2022, published 2025)", "format_in_all_cases": "physicochemical", "key": {"[1]": {"assay": "SABRE-SHEATH 13C hyperpolarization of [1-13C]pyruvate, DMSO co-ligand in methanol-d4, 1.8 T benchtop NMR detection"}, "[2]": {"assay": "Biphasic extraction of hyperpolarized pyruvate into D2O from fluorous mixture, HP 13C signal", "details": "aqueous phase after adding 400 μL D2O to NFBME/MeOD sample (emulsion formed), 1.8 T"}, "[3]": {"assay": "Re-use of fluorous mixture containing the perfluorinated SABRE catalyst for pyruvate hyperpolarization", "details": "re-used fluorous catalyst mixture from 4 days earlier, 23 mM pyruvate, 47 mM DMSO in 0.2 mL CD3OD added"}, "[4]": {"assay": "SABRE-SHEATH 13C hyperpolarization of [1-13C]pyruvate in nonafluorobutyl methyl ether / deuterated methanol mixture", "details": "7.4 mM catalyst of Example 4, 46 mM DMSO, 0.2 mL NFBME and 0.2 mL MeOD, 0° C., 110 PSI"}, "[5]": {"details": "catalyst of Example 16 6.6 mM, 40 mM sodium [1-13C]pyruvate, 50 mM DMSO, CD3OD, about 0.4 μT, 5° C., 110 psi, 90 scc/m"}, "[6]": {"details": "catalyst shown in Scheme 4 7.6 mM, 20 mM sodium [1-13C]pyruvate, 50 mM DMSO, CD3OD, about 0.4 μT, 5° C., 110 psi, 90 scc/m"}}}
{"smiles": "C[13C](=O)C(=O)O", "note": "[[1-^13C]pyruvate, Sodium [1-^13C]-pyruvate]", "values": [{"measurement": "optimum temperature for polarization transfer", "setting": "[1]; 30 mM sodium [1-13C]pyruvate, 2.6 mM fluorinated SABRE catalyst, 40 mM DMSO, p-H2 70 scc/m, 100 PSI", "result": "−7.24", "unit": "°C"}, {"measurement": "signal enhancement ε", "setting": "[1]; catalyst of Example 4 2.6 mM, 20 mM sodium [1-13C]pyruvate, 40 mM DMSO, 0.4 μT, 0° C., 110 PSI, 90 scc/m p-H2", "result": "~86500", "unit": "fold"}, {"measurement": "polarization P(13C)", "setting": "[1]; [5]", "result": "~2.17", "unit": "%"}, {"measurement": "signal enhancement ε", "setting": "[1]; [5]", "result": "~16900"}, {"measurement": "polarization P(13C)", "setting": "[1]; [6]", "result": "~4.91", "unit": "%"}, {"measurement": "signal enhancement ε", "setting": "[1]; [6]", "result": "~19000"}, {"measurement": "optimum mixing field", "setting": "[1]; methanol-d4, 0° C., 30 mM sodium [1-13C]pyruvate, 2.6 mM fluorinated SABRE catalyst, 40 mM DMSO, p-H2 70 scc/m, 100 PSI", "result": 0.4, "unit": "μT"}, {"measurement": "signal enhancement", "setting": "[2]", "result": "~10800", "unit": "fold"}, {"measurement": "signal enhancement ε", "setting": "[3]", "result": "~3090", "unit": "fold"}, {"measurement": "signal enhancement", "setting": "[4]; 23 mM pyruvate, 0.4 μT, 90 ssc/m", "result": "~38600", "unit": "fold"}, {"measurement": "optimum mixing field", "setting": "[4]; 22 mM pyruvate, 50 ssc/m", "result": 0.4, "unit": "μT"}]}
